The supplement of paper PMC10735217
Counter-ions that a name gives are not always drawn. The list shows a part of the results. Single values are uncertain here, since repeats match poorly.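 Human kidney-derived cells stably carry a construct in which eight TEAD-binding elements drive luciferase, measured by luminescence in a drug-repurposing library screen. A hit is any compound whose signal exceeds the plate mean by more than five robust Z scores.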

System: HEK293A TEAD-LUC reporter
Test: TEAD-luciferase reporter activity (YAP activation), robust Z score vs plate; higher = stronger YAP/TEAD activation
Conditions: 24 h

SMILES	TEAD-luciferase reporter activity (compound concentration: 200 nM)	TEAD-luciferase reporter activity (compound concentration: 2 uM)	TEAD-luciferase reporter activity (compound concentration: 10 uM)
N=C(N)c1ccc2[nH]c(-c3cc(CC(=O)N[C@@H](CC(=O)O)C(=O)O)cc(-c4cc(S(N)(=O)=O)ccc4O)c3O)nc2c1	inactive: -0.924	inactive: 0.363	inactive: -1.24
C=CCn1c(=O)c(C(=O)Nc2cccc(C)c2C)c(O)c2ccccc21	inactive: -0.734	inactive: 3.57	inactive: 1.62
O=C(O)CCCCCCCCCCCCCCCCI	inactive: 0.945	inactive: -0.296	inactive: -1.84
O=C(NC1CC1)C1CN(c2ccc(F)cc2)C(=O)N1 (configuration not stated)	inactive: 1.36	–	inactive: 1.64
NC(=O)/C=C1\CCc2c(F)cc(F)cc21	inactive: -0.444	active: 5.63	inactive: -0.773
COc1cc(C(C)=O)cc([N+](=O)[O-])c1O	inactive: 0.885	inactive: 0.616	inactive: -1.67
COc1cccc(C(=O)N(C)Cc2ccc(F)cc2)c1	inactive: -0.579	–	inactive: -0.427
CC(C)(C)NCC(O)COc1ccccc1C#N (configuration not stated) [bunitrolol]	active: 6.38	inactive: 0.424	inactive: 1.03
CCNCc1nc2c(C(=O)NC)c(Cl)cc(Cl)c2o1	inactive: -0.701	inactive: -0.744	inactive: -1.36
COc1ccc(N2CCN(C(=O)c3ccnc4ccccc34)CC2)cc1	inactive: 1.34	inactive: -1.37	inactive: -1.15
Cc1c(C(=O)NN2CCCCC2)nn(-c2ccc(Cl)cc2Cl)c1-c1ccc(Cl)cc1 [Rimonabant]	inactive: 0.241	–	inactive: -2.04
Cc1c(C(=O)NN2CCCCC2)nn(-c2ccc(Cl)cc2Cl)c1-c1ccc(Cl)cc1 [rimonabant]	–	inactive: -0.114	–
CC(=O)OCC(=O)C12N=C(C)O[C@@H]1C[C@H]1C3CCC4=CC(=O)C=CC4(C)[C@@]3(F)[C@@H](O)CC12C (some centres not stated)	inactive: -2.92	inactive: 0.15	inactive: 0.00243
CNC(=S)C1(C(=O)c2ccc(-n3ccnc3)cc2)CCC1	inactive: -0.678	inactive: -0.415	inactive: 1.81
N#C[C@H]1[C@H](O)[C@@H](CO)O[C@H]1n1ccc(N)nc1=O	inactive: -1.74	inactive: -0.824	inactive: -1.31
CC(C)n1c(C2CCNCC2)nc2c([N+](=O)[O-])c(Br)c(Br)cc21	inactive: 1.76	inactive: 0.0812	inactive: -0.603
N/C(=N\Nc1ccccc1)c1ccccc1	inactive: 0.938	inactive: -0.328	inactive: 1.23
CCCCOc1nc(N)c2[nH]c(=O)n(CCCCCC3CCNCC3)c2n1	inactive: -0.477	inactive: 4.8	inactive: 0.219
C=CCc1ccc(OCC(=O)N(CC)CC)c(OC)c1	inactive: -0.627	inactive: -1.65	inactive: 0.496

SMILES	TEAD-luciferase reporter activity (compound concentration: 200 nM)	TEAD-luciferase reporter activity (compound concentration: 2 uM)	TEAD-luciferase reporter activity (compound concentration: 10 uM)
O=C([O-])CC(NC(=O)CP(=O)([O-])[O-])C(=O)[O-] (configuration not stated) [Sparfosic acid]	inactive: -1.4	inactive: 0.293	inactive: 0.0481
CC12C=CCC1C1CC=C3C[C@@H](O)CCC3(C)C1CC2 (some centres not stated) [analog of aloradine]	inactive: -0.503	active: 12.1	inactive: -0.682
Nc1ccc(S(=O)(=O)Nc2cnc3c(Cl)cccc3n2)cc1	inactive: -0.504	–	inactive: 0.171
Nc1ccc(S(=O)(=O)Nc2cnc3c(Cl)cccc3n2)cc1 [chlorsulfaquinoxalone]	–	inactive: 0.0823	–
N[C@@H](Cc1ccc(-c2ccccc2)cc1)C(=O)NCCC(=O)O	inactive: -0.0318	inactive: -0.878	inactive: -0.803
N[C@@H]1CN(c2c(F)cc3c(=O)c(C(=O)O)cn([C@@H]4C[C@@H]4F)c3c2Cl)CC12CC2 [Sitafloxacin hydrate]	inactive: -0.615	inactive: -1.61	inactive: 0.22
COC1CC(OC2C(C)OC(OC3C(C)=CCC4CC(CC5(C=CC(C)C(C(C)C)O5)O4)OC(=O)C4C=C(C)C(O)C5OCC(=C/C=C/C3C)C45O)CC2OC)OC(C)C1NC(C)=O (configuration not stated)	inactive: -1.22	inactive: -2.32	inactive: 0.702
CC(O)CCCCn1c(=O)c2c(ncn2C)n(C)c1=O (configuration not stated) [Lisofylline]	inactive: 0.267	inactive: -0.477	inactive: -0.518
CCOC(=O)[C@H](CCc1ccccc1)N[C@@H](C)C(=O)N1Cc2ccccc2C[C@H]1C(=O)O	inactive: -1.45	–	inactive: -0.929
CCOC(=O)[C@H](CCc1ccccc1)N[C@@H](C)C(=O)N1Cc2ccccc2C[C@H]1C(=O)O [quinapril hydrochloride]	–	inactive: -0.927	–
C[C@@H]1OC(=O)N(C(=O)NCCCN2CCC(c3ccc(F)cc3)CC2)[C@H]1c1ccc(F)c(F)c1	inactive: 0.019	inactive: -0.363	inactive: -0.814
N#Cc1cc(CN2CCC(Nc3ncnc4sc(Cl)cc34)CC2)ccc1F	inactive: 0.397	inactive: -0.644	inactive: -0.607
COC(=O)Nc1ccc2oc3cc(S(=O)(=O)N[C@H](C(=O)O)C(C)C)ccc3c2c1	inactive: -2.01	inactive: 1.34	inactive: 0.95
CC(=O)NC(CO)C(=O)NC(CC(=O)O)C(=O)NC(CCCCN)C(=O)N1CCCC1C(=O)O (configuration not stated) [Goralatide]	inactive: -0.848	inactive: -0.223	inactive: 0.188
CCN1CCC[C@H]1CNC(=O)c1c(O)c(Cl)cc(Cl)c1OC [Raclopride]	–	inactive: -0.268	–
CCN1CCC[C@H]1CNC(=O)c1c(O)c(Cl)cc(Cl)c1OC	inactive: -2.65	–	inactive: -0.00342
CC(C)(O)[C@@H]1CC=C(CCO)[C@@H](O)C1	inactive: -0.165	inactive: -0.35	inactive: 3.37
CN(CC1=C(C(=O)O)N2C(=O)[C@@H](NC(=O)/C(=N/OC(C)(C)C(=O)O)c3csc(N)n3)[C@H]2SC1)Cc1cc(=O)c(O)cn1O	inactive: 0.457	active: 5.42	inactive: -0.93

Reformatted: entries from further up
SMILES,TEAD-luciferase reporter activity (compound concentration: 200 nM),TEAD-luciferase reporter activity (compound concentration: 2 uM),TEAD-luciferase reporter activity (compound concentration: 10 uM)
O=C(NC1CC1)C1CN(c2ccc(F)cc2)C(=O)N1 (configuration not stated),inactive: 1.36,–,inactive: 1.64
CC(C)(C)NCC(O)COc1ccccc1C#N (configuration not stated) [bunitrolol],active: 6.38,inactive: 0.424,inactive: 1.03
COc1ccc(N2CCN(C(=O)c3ccnc4ccccc34)CC2)cc1,inactive: 1.34,inactive: -1.37,inactive: -1.15
CNC(=S)C1(C(=O)c2ccc(-n3ccnc3)cc2)CCC1,inactive: -0.678,inactive: -0.415,inactive: 1.81
CCCCOc1nc(N)c2[nH]c(=O)n(CCCCCC3CCNCC3)c2n1,inactive: -0.477,inactive: 4.8,inactive: 0.219
CCOC(=O)[C@H](CCc1ccccc1)N[C@@H](C)C(=O)N1Cc2ccccc2C[C@H]1C(=O)O,inactive: -1.45,–,inactive: -0.929
N#Cc1cc(CN2CCC(Nc3ncnc4sc(Cl)cc34)CC2)ccc1F,inactive: 0.397,inactive: -0.644,inactive: -0.607
CC(C)(O)[C@@H]1CC=C(CCO)[C@@H](O)C1,inactive: -0.165,inactive: -0.35,inactive: 3.37
